This experiment deals with PTEN (phosphatase tensin homolog) (rat (endogenous in NRCMs)) (UniProt O54857). The experiment is described as follows: co-IP; whole-cell extracts of NRCMs after transfection or stimulation, incubated overnight with antibodies plus Protein A/G beads, washed five times, SDS-PAGE and Western blot; bait not stated.

Sequences of proteins named here, by UniProt entry; tags and fusion partners are left off.
UniProt O54857: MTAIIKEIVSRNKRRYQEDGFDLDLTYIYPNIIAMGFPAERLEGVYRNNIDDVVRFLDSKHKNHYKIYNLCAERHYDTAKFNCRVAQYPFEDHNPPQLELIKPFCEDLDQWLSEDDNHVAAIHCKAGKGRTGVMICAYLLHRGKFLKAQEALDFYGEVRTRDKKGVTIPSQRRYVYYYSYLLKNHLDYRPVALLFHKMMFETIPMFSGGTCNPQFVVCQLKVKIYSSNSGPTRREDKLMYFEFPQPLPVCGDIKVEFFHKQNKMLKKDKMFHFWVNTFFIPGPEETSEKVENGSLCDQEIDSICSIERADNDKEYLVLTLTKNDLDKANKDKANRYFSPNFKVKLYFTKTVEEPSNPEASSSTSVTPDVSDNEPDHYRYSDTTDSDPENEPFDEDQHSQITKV

These are yes or no findings as the source states them, for the method shown. Binding seen in cells or lysates may run through a third protein. Some results given as binding are weak or reduced against the parent protein; the word gives no strength.

B1: Tripartite motif-containing 27 (protein, UniProt A0A0G2K8V4 1-513)
chain: MASGSVAESLQQETTCPVCLQYFVEPMMLDCGHNICCACLARCWGAAETNVSCPQCRETFPQRHMRPNRHLANVTQLVKQLRTERPSGPDGEMGVCEKHREPLKLYCEQDQMPICVVCDRSREHRGHSVLPLEEAVEGFKEQIQNRLDHLRRVKDLKKRRRAQGEQARAELLSLTQMEREKIVWEFEQLYHSLKEHEYRLLARLEELDLAIYNSINGAITQFSCNISHLSGLIAQLEEKQQQPTRELLQDIGDTLSRAERIRIPEPWITPPDLQEKIHIFAQKCLFLTESLKQFTEKMQSDMEKIQELREAQLYSVDVTLDPDTAYPSLILSDNLRQVRYSYLQQDLPDNPERFNLFPCVLGSPCFIAGRHYWEVEVGDKAKWTIGVCEDSVCRKGGVTSAPQNGFWAVSLWYGKEYWALTSPMTALPLRTPLQRVGIFLDYDAGEVSFYNVTERCHTFTFSHATFCGPVRPYFSLSYSGGKSAAPLIICPMSGIDGFSGHVGNHGHSMETSP
As for B1, the binding entry is on record as “binds”.

For the origin of these results see paper PMC9208448.
